Our source for the binding values is patent US20180147232A1.

Protein sequences, listed by entry. Tags and fused reporters are not part of them.
UniProt P49815: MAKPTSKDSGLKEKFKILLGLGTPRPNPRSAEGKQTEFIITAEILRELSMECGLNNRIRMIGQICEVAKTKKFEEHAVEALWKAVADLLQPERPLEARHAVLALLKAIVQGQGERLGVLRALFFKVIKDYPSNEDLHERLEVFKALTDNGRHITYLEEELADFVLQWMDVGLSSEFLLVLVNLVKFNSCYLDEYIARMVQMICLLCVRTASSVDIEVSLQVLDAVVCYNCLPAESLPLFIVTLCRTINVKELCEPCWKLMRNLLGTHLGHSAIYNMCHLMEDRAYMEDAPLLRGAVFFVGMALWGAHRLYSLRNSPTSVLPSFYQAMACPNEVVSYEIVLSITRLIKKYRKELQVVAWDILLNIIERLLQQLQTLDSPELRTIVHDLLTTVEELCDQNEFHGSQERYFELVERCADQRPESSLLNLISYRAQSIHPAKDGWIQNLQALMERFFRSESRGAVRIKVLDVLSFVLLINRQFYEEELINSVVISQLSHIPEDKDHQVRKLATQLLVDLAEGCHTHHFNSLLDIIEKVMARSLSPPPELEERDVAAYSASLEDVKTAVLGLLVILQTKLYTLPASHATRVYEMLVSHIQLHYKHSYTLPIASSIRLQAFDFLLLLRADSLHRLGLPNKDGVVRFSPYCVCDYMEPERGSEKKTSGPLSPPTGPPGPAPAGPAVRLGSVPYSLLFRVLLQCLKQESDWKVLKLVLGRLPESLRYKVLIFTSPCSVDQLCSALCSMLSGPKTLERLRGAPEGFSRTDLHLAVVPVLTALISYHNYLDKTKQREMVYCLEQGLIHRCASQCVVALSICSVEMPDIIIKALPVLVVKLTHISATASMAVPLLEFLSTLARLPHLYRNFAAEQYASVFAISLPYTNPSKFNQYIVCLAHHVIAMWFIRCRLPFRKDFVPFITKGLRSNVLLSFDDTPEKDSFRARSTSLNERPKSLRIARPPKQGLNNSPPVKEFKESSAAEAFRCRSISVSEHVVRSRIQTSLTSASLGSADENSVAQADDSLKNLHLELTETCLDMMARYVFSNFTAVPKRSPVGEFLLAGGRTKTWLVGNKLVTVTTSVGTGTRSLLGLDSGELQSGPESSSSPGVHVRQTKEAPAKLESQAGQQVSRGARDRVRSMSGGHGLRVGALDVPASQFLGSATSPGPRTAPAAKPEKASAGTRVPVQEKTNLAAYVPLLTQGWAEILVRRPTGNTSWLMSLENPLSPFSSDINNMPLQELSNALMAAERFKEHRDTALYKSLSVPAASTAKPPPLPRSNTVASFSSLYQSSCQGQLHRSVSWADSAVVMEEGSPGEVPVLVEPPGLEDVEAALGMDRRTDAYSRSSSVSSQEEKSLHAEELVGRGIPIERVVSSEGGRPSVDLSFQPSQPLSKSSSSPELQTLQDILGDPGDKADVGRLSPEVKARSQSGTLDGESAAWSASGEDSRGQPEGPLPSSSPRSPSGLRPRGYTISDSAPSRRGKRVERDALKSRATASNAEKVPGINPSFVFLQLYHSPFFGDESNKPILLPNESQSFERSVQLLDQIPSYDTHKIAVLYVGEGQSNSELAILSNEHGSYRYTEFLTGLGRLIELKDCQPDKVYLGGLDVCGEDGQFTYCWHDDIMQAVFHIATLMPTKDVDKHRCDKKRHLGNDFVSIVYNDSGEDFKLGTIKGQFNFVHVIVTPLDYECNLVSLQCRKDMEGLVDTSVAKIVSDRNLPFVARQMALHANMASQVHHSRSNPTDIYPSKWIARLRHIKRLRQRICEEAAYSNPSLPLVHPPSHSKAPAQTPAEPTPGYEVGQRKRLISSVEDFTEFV
UniProt O00141: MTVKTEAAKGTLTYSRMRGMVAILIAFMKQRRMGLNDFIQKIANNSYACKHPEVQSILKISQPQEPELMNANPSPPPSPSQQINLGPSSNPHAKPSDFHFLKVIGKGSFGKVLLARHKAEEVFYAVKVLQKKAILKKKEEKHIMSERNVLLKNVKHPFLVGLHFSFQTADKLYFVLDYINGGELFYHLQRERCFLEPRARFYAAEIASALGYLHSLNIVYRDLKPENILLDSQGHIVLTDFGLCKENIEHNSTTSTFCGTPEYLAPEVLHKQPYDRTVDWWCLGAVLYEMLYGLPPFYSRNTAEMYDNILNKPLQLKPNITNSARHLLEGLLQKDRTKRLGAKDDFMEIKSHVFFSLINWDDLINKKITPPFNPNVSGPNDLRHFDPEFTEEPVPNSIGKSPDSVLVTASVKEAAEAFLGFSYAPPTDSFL

These are yes or no findings as the source states them, for the method shown. In cells and extracts the contact can be indirect. Some results given as binding are weak or reduced against the parent protein; the word gives no strength.

This assay has as its target endogenous TSC2 (UniProt P49815). Briefly: co-immunoprecipitation from JIMT1 lysate with sheep anti-SGK1 antibody S062D.

On to “endogenous SGK1 (from UniProt O00141 1-431) (enzyme)”, for which the binding result is on record as “binds”.
